Laboratory results as given in patent US7763640B2, “Substituted oxyguanidines” (Bayer CorpScience AG, priority 2004, dated 2010).
At least one structure is not confirmed: it was looked up by name or label, or the drawing left a doubt.

Tests used:
Assay type in all cases: in vivo
[1] = test system: cotton aphid (Aphis gossypii); experiment: Aphis gossypii test, soil application, Example D; settings: cotton plant
Procedure: (§1) To prepare a suitable active compound preparation 1 part by weight of the active compound is mixed with the given amount of solvent and the given amount of emulsifier and the concentrate is diluted to the desired concentration with water.
The active compound preparation is mixed with soil. The concentration given relates to the amount of active compound per unit volume soil (mg/l=ppm). The treated soil is filled into pots and planted with one cotton plant (Gossypium hirsutum). After a week infection is carried out with the cotton aphid (Aphis gossypii).
(§2) After the desired time the death rate in % is determined. Here 100% means that all aphids were killed; 0% means that no aphids were killed.

[2] = test system: green peach aphid (Myzus persicae); experiment: Myzus persicae test (cabbage leaves, immersion), Example A
Procedure: as §1
Cabbage leaves (Brassica oleracea) that are highly infested with the green peach aphid (Myzus persicae) are treated by immersion in the active compound preparation at the desired concentration.
as §2

[3] = test system: green peach aphid (Myzus persicae); experiment: Myzus persicae test, soil application, Example C; settings: pepper plant
Procedure: as §1
The active compound preparation is mixed with soil. The concentration given relates to the amount of active compound per unit volume soil (mg/l=ppm). The treated soil is filled into pots and planted with one pepper plant (Capsicum annuum). After one week infection is carried out with the green peach aphid (Myzus persicae).
After the desired time the activity in % is determined. Here 100% means that all aphids were killed; 0% means that no aphids were killed.

CON/C(=N\[N+](=O)[O-])NCc1ccc(Cl)nc1 [Example I-1, N-methoxy-N′-(2-chloropyrid-5-ylmethyl)nitroguanidine]
good activity: activity in Aphis gossypii test, soil application [1] | activity in Myzus persicae test [2] | activity in Myzus persicae test, soil application [3]
